The target of this experiment is HA-tagged MICU1 (UniProt Q9BPX6). The experiment is described as follows: co-IP; HA-tagged MICU1 precipitated, endogenous TMBIM5 detected by immunoblot; empty vector as control; conditions not described. For orientation: A western blot detects proteins with antibodies after separation by electrophoresis.

The chains behind the UniProt entries cited, without tags or fusion partners. Residues count along the entry.
UniProt Q9BPX6, residues 34-476: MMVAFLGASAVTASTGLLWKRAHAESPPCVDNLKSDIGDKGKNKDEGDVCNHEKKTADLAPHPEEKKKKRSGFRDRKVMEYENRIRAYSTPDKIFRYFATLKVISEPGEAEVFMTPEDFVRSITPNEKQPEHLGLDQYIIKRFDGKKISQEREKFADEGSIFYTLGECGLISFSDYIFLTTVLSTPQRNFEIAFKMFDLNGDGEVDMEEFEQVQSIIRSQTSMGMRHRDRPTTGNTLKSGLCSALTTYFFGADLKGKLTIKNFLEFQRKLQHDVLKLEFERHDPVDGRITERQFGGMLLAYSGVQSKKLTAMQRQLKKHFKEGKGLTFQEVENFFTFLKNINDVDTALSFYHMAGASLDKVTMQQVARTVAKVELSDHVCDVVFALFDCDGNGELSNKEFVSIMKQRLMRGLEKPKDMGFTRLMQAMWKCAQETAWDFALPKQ

In PMC12449474 one finds binding data, which are given here for 1 molecule.

No constants are given. Whether binding was seen depends on the method and setting. Binding seen in cells or lysates may run through a third protein. Some results given as binding are weak or reduced against the parent protein; the word gives no strength.

B1: Transmembrane Bax-Inhibitor Motif (TMBIM)-containing protein 5 (TMBIM5), endogenous (protein, UniProt Q9H3K2 46-345)
chain: ATKTRIGIRRGRTGQELKEAALEPSMEKIFKIDQMGRWFVAGGAAVGLGALCYYGLGLSNEIGAIEKAVIWPQYVKDRIHSTYMYLAGSIGLTALSAIAISRTPVLMNFMMRGSWVTIGVTFAAMVGAGMLVRSIPYDQSPGPKHLAWLLHSGVMGAVVAPLTILGGPLLIRAAWYTAGIVGGLSTVAMCAPSEKFLNMGAPLGVGLGLVFVSSLGSMFLPPTTVAGATLYSVAMYGGLVLFSMFLLYDTQKVIKRAEVSPMYGVQKYDPINSMLSIYMDTLNIFMRVATMLATGGNRKK
B1: the binding entry is listed as “binds”.
